The values that follow come from paper PMC10974294, “Addressing the ADME Challenges of Compound Loss in a PDMS-Based Gut-on-Chip Microphysiological System” (Pharmaceutics, 2024).

A short description of the data set: Compound loss (PDMS ad- and absorption) in cell-free organ-chips. Format: in vitro ADME. The settings on record: 10 µM per drug in cocktail, outlet vs inlet after one hour at 200 µL/h, mean of two experiments. From the text: S-1® Organ-Chips from Emulate Inc. (Boston, MA, USA) comprise 2 parallel channels (top and bottom) for cell culture, which are superimposed and separated via a porous membrane, all made of polydimethylsiloxane (PDMS). The 50 µm thick membrane contains pores of a diameter of 7 µm, which are spaced 40 µm apart from each other. In addition, 2 more channels, in which a vacuum can be applied to laterally stretch the cell culture channels, flank the cell culture channels horizontally. The top channel has a size of 1000 × 1000 µm (width × height), a culture area of 28 mm^2, and a volume of 28 µL. The bottom channel has a size of 1000 × 200 µm (width × height), a culture area of 24.5 mm^2, and a volume of 5.6 µL. Both channels share an area of 17.1 mm^2 of the porous membrane as a coculture area. […]
Compound loss experiments in cell-free organ-chips were performed with used chips after removal of the cells and washing-out of previously perfused compounds (Section 4). […] The compound concentrations in the outlets were measured via liquid chromatography-tandem mass spectrometry (LC-MS/MS, Section 2.8) after a period of one hour, with a flow rate of 200 µL/h (manufacturer’s instruction), and relatively compared to the inlet concentrations, and the difference was reported as the percent drug absorbed. […]

In the case of `COC(=O)C1=C(C)NC(C)=C(C(=O)OC)C1c1ccccc1[N+](=O)[O-]` [Nifedipine], the “Compound Loss Bottom Channel (%)” value is given as 25.6% and the “Compound Loss Top Channel (%)” value is reported as 28.3%.
